Measurements reported in PubChem BioAssay AID602196 (INSERM, 2012)
Assay: 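Genes whose knock-down alters cisplatin killing of lung cancer cells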. Cells: human A549 lung cancer cells. Reagents: siRNA pair against human genes. Timing: 48 h transfection before cisplatin; time from cisplatin to read-out not stated. Conditions: cisplatin at a dose killing half of control-siRNA cells; exact dose and duration not given. Detection: 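Shift in cisplatin death relative to control siRNA, from -50 (all cells die) to +50 (no cells die); siRNAs harmful on their own scored 0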. Reading the numbers: two-siRNA summed score (-2 to +2): higher = both siRNAs protect from cisplatin killing; -2 means both sensitise. Active means: 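Each siRNA scores 0 if harmful alone by LDH or WST-1, otherwise +1 if it reduces and -1 if it increases cisplatin killing; a gene is active when both siRNAs agree (sum +2 or -2)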. Calls: active = both siRNAs shift cisplatin killing the same way; inactive = no consistent shift, or siRNA harmful alone.
Here is a random part of about 23,000 reagents tested. 455 of all reagents (2%) count as active. 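Active includes both protection and sensitisation; some change values fall well beyond the stated -50 to +50 range.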 Further read-outs or replicates are left out here. Not given: the amount of reagent.

Target gene	two-siRNA summed score (-2 to +2)	outcome
MIEF2	0	inactive
TSPAN13	0	inactive
DEGS1	-1	inactive
VMA22	0	inactive
LOC400723	1	inactive
LOC441756	1	inactive
LOC388270	0	inactive
TXNRD3	0	inactive
BRMS1	-1	inactive
ZFP37	2	active
RTL9	0	inactive
RAB35	0	inactive
KIF21B	0	inactive
GUCY1A2	-1	inactive
GNG4	0	inactive
TRMT10C	0	inactive
CYFIP1	0	inactive
C8orf82	1	inactive
POLDIP2	0	inactive
LOC441531	1	inactive
ING4	0	inactive
KMT5C	0	inactive
DNMT1	0	inactive
ERAP2	-1	inactive
KCNA7	-1	inactive
CAP1	0	inactive
LOC388943	0	inactive
CEP95	0	inactive
LRRTM3	0	inactive
LOC401817	0	inactive
LINC01587	0	inactive
LOC389000	1	inactive
TTF1	0	inactive
LOC389364	-1	inactive
KRT82	0	inactive
MMRN1	1	inactive
PAOX	0	inactive
SEMA3D	0	inactive
EAF1	1	inactive

Already shown: 4 of the entries above.
Target gene	two-siRNA summed score (-2 to +2)	outcome
MIEF2	0	inactive
TSPAN13	0	inactive
DEGS1	-1	inactive
VMA22	0	inactive
